Test results: PMC10797690, “The SIRT3-ATAD3A axis regulates MAM dynamics and mitochondrial calcium homeostasis in cardiac hypertrophy” (International Journal of Biological Sciences, 2024)
Results are given in words; binding and its absence hold for the method and conditions named. For part of these data: Binding seen in cells or lysates may run through a third protein. Some binding calls cover weakened binding; strength is not graded here. For part of these data: Tags and fused reporters may be left off the sequences shown.

Protein sequences, listed by entry. Tags and fused reporters are not part of them. Residues count along the entry.
UniProt P29994: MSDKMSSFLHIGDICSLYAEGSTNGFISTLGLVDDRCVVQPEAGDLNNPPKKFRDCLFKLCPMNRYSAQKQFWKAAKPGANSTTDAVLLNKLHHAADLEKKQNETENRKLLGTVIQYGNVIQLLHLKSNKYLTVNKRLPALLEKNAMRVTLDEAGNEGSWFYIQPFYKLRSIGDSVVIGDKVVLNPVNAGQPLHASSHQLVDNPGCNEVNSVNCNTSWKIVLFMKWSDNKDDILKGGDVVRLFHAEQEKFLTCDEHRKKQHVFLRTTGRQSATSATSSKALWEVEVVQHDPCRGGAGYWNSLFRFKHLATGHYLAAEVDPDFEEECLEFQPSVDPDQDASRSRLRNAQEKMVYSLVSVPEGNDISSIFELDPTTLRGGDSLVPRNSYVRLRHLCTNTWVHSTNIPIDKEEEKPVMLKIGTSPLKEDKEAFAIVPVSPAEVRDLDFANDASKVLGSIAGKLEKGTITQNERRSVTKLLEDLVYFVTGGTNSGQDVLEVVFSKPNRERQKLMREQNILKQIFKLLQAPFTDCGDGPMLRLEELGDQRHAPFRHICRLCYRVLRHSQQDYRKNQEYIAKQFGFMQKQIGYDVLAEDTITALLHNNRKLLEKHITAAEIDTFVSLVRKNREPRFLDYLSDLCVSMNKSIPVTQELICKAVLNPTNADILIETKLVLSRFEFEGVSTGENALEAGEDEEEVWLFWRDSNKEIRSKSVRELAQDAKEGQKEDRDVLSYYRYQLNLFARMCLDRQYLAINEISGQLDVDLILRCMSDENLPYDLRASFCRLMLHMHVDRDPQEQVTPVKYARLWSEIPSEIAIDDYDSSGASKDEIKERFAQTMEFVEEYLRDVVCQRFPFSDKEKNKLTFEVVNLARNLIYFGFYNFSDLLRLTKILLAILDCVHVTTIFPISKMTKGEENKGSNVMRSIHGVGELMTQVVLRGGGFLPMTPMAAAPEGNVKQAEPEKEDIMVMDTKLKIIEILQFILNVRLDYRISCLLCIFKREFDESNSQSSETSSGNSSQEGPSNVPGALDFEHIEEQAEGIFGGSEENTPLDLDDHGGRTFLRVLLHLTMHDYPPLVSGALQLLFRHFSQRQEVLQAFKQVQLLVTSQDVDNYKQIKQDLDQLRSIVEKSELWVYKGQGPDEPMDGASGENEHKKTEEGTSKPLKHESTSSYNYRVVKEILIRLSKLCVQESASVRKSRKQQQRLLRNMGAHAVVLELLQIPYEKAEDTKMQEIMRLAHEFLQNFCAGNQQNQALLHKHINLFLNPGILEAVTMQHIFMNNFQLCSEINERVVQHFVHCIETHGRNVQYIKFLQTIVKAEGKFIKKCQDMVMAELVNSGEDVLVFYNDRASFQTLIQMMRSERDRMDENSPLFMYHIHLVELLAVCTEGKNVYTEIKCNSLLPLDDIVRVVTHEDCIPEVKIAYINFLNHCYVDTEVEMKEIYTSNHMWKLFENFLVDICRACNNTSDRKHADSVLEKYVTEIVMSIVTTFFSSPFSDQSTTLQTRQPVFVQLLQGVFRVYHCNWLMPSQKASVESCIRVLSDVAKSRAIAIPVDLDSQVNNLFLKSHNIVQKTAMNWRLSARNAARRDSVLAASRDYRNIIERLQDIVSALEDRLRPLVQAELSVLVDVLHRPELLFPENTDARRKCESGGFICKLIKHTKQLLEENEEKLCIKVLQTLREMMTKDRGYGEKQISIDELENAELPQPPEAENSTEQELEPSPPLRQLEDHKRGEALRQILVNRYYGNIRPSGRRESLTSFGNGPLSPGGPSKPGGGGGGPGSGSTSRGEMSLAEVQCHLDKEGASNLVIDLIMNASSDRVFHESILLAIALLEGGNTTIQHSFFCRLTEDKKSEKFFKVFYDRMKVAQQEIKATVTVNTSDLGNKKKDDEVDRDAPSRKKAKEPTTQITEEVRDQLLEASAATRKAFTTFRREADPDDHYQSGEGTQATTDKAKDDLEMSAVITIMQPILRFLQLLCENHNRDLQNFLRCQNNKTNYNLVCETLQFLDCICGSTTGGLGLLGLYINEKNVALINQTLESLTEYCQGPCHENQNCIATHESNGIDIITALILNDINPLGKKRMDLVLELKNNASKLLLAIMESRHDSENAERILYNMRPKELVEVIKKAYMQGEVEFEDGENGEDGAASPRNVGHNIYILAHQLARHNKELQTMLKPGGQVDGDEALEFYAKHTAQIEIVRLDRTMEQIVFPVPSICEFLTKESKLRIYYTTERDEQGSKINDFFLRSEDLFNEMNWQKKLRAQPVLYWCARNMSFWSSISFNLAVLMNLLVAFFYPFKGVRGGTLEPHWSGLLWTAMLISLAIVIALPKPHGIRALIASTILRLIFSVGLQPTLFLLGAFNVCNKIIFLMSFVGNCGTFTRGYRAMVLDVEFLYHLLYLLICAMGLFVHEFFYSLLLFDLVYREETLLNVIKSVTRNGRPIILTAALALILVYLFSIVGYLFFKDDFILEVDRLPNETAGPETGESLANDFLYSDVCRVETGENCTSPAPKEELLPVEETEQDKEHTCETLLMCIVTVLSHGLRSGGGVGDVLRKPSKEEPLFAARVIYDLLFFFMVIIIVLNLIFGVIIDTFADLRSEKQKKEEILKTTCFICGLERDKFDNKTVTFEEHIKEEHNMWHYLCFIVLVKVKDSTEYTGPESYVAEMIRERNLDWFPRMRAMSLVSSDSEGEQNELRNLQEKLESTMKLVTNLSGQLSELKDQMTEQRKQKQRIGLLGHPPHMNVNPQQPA
UniProt Q9Z2L0: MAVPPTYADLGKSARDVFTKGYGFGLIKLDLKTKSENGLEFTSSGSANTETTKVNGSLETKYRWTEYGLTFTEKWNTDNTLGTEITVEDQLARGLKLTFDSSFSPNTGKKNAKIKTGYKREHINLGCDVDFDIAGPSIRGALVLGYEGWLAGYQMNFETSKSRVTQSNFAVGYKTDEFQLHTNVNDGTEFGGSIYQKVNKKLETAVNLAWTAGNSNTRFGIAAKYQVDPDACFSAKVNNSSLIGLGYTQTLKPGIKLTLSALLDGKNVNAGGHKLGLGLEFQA
UniProt P48721, residues 47-679: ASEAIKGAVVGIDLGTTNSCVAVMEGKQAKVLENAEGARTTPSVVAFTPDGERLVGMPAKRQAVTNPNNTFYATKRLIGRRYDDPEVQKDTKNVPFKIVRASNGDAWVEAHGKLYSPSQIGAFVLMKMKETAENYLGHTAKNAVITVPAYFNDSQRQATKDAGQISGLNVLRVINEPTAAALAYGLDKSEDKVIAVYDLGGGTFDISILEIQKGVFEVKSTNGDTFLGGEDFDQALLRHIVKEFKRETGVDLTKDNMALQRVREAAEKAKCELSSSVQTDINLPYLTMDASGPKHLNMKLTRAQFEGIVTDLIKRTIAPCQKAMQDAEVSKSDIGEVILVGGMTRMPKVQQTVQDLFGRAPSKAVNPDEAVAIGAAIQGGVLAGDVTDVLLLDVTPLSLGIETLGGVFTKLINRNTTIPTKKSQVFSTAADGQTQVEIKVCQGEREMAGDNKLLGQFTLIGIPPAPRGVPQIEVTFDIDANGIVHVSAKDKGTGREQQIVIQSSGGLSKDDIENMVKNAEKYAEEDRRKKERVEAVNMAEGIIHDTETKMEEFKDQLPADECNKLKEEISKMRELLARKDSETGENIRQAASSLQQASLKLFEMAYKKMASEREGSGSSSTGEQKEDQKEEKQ

T1: ATAD3A-K134Q (UniProt Q3KRE0)
T1 sequence: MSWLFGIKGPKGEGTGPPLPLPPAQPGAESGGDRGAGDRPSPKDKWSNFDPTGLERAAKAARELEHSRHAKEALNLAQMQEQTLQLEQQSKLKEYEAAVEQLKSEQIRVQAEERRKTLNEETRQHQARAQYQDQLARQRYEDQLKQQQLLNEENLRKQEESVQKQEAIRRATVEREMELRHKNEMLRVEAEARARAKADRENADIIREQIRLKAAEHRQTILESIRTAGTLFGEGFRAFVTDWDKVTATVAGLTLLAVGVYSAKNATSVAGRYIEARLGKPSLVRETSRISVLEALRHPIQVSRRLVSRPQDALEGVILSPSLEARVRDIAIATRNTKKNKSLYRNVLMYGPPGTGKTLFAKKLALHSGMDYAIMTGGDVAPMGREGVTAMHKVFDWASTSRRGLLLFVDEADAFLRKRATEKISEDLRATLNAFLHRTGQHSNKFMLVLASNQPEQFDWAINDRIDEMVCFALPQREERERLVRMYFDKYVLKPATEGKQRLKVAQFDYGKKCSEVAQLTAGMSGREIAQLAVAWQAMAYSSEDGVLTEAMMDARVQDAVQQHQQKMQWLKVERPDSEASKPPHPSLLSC

T2: ATAD3A-Flag (UniProt Q3KRE0)
T2 sequence: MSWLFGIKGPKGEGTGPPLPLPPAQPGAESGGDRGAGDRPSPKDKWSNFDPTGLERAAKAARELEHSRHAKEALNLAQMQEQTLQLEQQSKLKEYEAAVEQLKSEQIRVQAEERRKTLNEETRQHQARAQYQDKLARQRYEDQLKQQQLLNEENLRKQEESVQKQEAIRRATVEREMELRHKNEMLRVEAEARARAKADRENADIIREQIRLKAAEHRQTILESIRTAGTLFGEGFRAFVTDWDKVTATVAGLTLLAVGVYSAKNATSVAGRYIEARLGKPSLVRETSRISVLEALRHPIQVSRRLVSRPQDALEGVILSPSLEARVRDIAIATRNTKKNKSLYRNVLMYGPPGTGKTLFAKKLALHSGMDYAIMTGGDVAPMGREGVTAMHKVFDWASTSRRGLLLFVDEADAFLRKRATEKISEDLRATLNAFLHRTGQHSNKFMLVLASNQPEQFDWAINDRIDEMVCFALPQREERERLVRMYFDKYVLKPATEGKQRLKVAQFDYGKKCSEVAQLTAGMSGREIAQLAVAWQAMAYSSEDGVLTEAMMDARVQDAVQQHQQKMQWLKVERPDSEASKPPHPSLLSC

T3: ATAD3A, endogenous in rat cardiomyocytes and rat cardiac tissue (rat (endogenous in NRCMs and rat heart)) (UniProt Q3KRE0)
T3 sequence: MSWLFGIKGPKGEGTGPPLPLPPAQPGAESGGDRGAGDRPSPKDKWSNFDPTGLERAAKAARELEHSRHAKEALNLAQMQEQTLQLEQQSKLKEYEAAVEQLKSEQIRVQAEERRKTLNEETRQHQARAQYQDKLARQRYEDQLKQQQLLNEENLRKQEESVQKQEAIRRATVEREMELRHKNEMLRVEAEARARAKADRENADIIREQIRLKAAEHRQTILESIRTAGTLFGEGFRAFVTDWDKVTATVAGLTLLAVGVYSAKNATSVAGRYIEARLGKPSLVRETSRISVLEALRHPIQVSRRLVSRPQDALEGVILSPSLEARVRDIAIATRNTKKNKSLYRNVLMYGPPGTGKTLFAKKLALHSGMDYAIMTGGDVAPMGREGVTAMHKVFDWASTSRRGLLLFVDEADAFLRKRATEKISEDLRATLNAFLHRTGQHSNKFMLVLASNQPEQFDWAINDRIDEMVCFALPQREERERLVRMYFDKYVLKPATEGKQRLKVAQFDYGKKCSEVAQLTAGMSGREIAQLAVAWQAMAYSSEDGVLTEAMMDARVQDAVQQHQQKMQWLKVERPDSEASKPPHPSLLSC

T4: ATAD3A-K134E (UniProt Q3KRE0)
T4 sequence: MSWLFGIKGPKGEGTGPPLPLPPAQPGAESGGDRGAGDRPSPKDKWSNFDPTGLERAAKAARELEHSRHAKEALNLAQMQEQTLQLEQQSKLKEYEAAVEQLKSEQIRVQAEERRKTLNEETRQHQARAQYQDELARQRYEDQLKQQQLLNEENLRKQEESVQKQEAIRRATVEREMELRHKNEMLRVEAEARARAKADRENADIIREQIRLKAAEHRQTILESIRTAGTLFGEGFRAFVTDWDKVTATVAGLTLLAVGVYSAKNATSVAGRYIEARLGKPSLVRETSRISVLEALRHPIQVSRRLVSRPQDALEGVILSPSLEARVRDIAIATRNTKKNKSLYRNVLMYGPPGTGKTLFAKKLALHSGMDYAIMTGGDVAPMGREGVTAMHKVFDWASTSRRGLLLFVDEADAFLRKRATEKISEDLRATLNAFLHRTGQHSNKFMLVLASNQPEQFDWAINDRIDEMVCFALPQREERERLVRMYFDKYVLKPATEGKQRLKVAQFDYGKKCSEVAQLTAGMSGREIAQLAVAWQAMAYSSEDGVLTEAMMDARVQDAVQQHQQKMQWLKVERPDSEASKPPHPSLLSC


Tests used:
ATAD3A-K134Q [1] = target: T1, ATAD3A-K134Q; experiment: co-IP; H9c2 cells transfected with ATAD3A-Flag or ATAD3A-K134Q, IP with anti-Flag antibody, Western blot; with 3-TYP or DMSO
ATAD3A-Flag [2] = target: T2, ATAD3A-Flag; experiment: as above
[3] = target: T3, ATAD3A, endogenous in rat cardiomyocytes and rat cardiac tissue (rat (endogenous in NRCMs and rat heart)); experiment: co-IP; endogenous proteins in cardiomyocytes, immunoprecipitated and revealed using the indicated antibodies
[4] = target: IP3 Receptor 1 (IP3R1), endogenous (rat (endogenous in cardiomyocytes, H9c2 cells and rat heart)) (UniProt P29994); experiment: co-IP; lysates of rat heart tissue (Ad-GFP or Ad-ATAD3A, ISO or normal saline), IP with anti-IP3R1 antibody, Western blot
ATAD3A-K134E = target: T4, ATAD3A-K134E; experiment: co-IP; H9c2 cells co-transfected with GFP-ATAD3A and ATAD3A-Flag or its mutants; immunoprecipitation with anti-Flag beads, immunoblot with anti-GFP
[5] = target: T3, ATAD3A, endogenous in rat cardiomyocytes and rat cardiac tissue (rat (endogenous in NRCMs and rat heart)); experiment: native gel or EMSA; native gel electrophoresis of total lysates of transfected H9c2 cells, NRCMs or cardiac tissue; ATAD3A oligomers; treatments: ISO, siSIRT3, SIRT3-KO, SZC-6
ATAD3A-K134Q [6] = target: T1, ATAD3A-K134Q; experiment: as above
ATAD3A-Flag [7] = target: T2, ATAD3A-Flag; experiment: as above

Row | binding (ATAD3A-K134Q [1]) | binding (ATAD3A-Flag [2]) | binding [3] | Molecule | also measured
1 | binds | binds | binds | voltage-dependent anion channel 1 (VDAC1), endogenous (from UniProt Q9Z2L0 1-283) | binding [4]: binds
2 | binds | binds | binds | IP3 Receptor 1 (IP3R1), endogenous (from UniProt P29994 1-2750) | –
3 | – | – | – | GFP-ATAD3A (protein, UniProt Q3KRE0 1-591) MSWLFGIKGPKGEGTGPPLPLPPAQPGAESGGDRGAGDRPSPKDKWSNFDPTGLERAAKAARELEHSRHAKEALNLAQMQEQTLQLEQQSKLKEYEAAVEQLKSEQIRVQAEERRKTLNEETRQHQARAQYQDKLARQRYEDQLKQQQLLNEENLRKQEESVQKQEAIRRATVEREMELRHKNEMLRVEAEARARAKADRENADIIREQIRLKAAEHRQTILESIRTAGTLFGEGFRAFVTDWDKVTATVAGLTLLAVGVYSAKNATSVAGRYIEARLGKPSLVRETSRISVLEALRHPIQVSRRLVSRPQDALEGVILSPSLEARVRDIAIATRNTKKNKSLYRNVLMYGPPGTGKTLFAKKLALHSGMDYAIMTGGDVAPMGREGVTAMHKVFDWASTSRRGLLLFVDEADAFLRKRATEKISEDLRATLNAFLHRTGQHSNKFMLVLASNQPEQFDWAINDRIDEMVCFALPQREERERLVRMYFDKYVLKPATEGKQRLKVAQFDYGKKCSEVAQLTAGMSGREIAQLAVAWQAMAYSSEDGVLTEAMMDARVQDAVQQHQQKMQWLKVERPDSEASKPPHPSLLSC | binding (ATAD3A-K134E): binds
4 | – | – | – | ATAD3A, endogenous in rat cardiomyocytes and rat cardiac tissue (protein, UniProt Q3KRE0 1-591) MSWLFGIKGPKGEGTGPPLPLPPAQPGAESGGDRGAGDRPSPKDKWSNFDPTGLERAAKAARELEHSRHAKEALNLAQMQEQTLQLEQQSKLKEYEAAVEQLKSEQIRVQAEERRKTLNEETRQHQARAQYQDKLARQRYEDQLKQQQLLNEENLRKQEESVQKQEAIRRATVEREMELRHKNEMLRVEAEARARAKADRENADIIREQIRLKAAEHRQTILESIRTAGTLFGEGFRAFVTDWDKVTATVAGLTLLAVGVYSAKNATSVAGRYIEARLGKPSLVRETSRISVLEALRHPIQVSRRLVSRPQDALEGVILSPSLEARVRDIAIATRNTKKNKSLYRNVLMYGPPGTGKTLFAKKLALHSGMDYAIMTGGDVAPMGREGVTAMHKVFDWASTSRRGLLLFVDEADAFLRKRATEKISEDLRATLNAFLHRTGQHSNKFMLVLASNQPEQFDWAINDRIDEMVCFALPQREERERLVRMYFDKYVLKPATEGKQRLKVAQFDYGKKCSEVAQLTAGMSGREIAQLAVAWQAMAYSSEDGVLTEAMMDARVQDAVQQHQQKMQWLKVERPDSEASKPPHPSLLSC | binding [5]: binds
5 | – | – | – | ATAD3A-K134Q (protein, UniProt Q3KRE0 1-591) MSWLFGIKGPKGEGTGPPLPLPPAQPGAESGGDRGAGDRPSPKDKWSNFDPTGLERAAKAARELEHSRHAKEALNLAQMQEQTLQLEQQSKLKEYEAAVEQLKSEQIRVQAEERRKTLNEETRQHQARAQYQDQLARQRYEDQLKQQQLLNEENLRKQEESVQKQEAIRRATVEREMELRHKNEMLRVEAEARARAKADRENADIIREQIRLKAAEHRQTILESIRTAGTLFGEGFRAFVTDWDKVTATVAGLTLLAVGVYSAKNATSVAGRYIEARLGKPSLVRETSRISVLEALRHPIQVSRRLVSRPQDALEGVILSPSLEARVRDIAIATRNTKKNKSLYRNVLMYGPPGTGKTLFAKKLALHSGMDYAIMTGGDVAPMGREGVTAMHKVFDWASTSRRGLLLFVDEADAFLRKRATEKISEDLRATLNAFLHRTGQHSNKFMLVLASNQPEQFDWAINDRIDEMVCFALPQREERERLVRMYFDKYVLKPATEGKQRLKVAQFDYGKKCSEVAQLTAGMSGREIAQLAVAWQAMAYSSEDGVLTEAMMDARVQDAVQQHQQKMQWLKVERPDSEASKPPHPSLLSC | binding (ATAD3A-K134Q [6]): binds
6 | – | – | – | ATAD3A-Flag (protein, UniProt Q3KRE0 1-591) MSWLFGIKGPKGEGTGPPLPLPPAQPGAESGGDRGAGDRPSPKDKWSNFDPTGLERAAKAARELEHSRHAKEALNLAQMQEQTLQLEQQSKLKEYEAAVEQLKSEQIRVQAEERRKTLNEETRQHQARAQYQDKLARQRYEDQLKQQQLLNEENLRKQEESVQKQEAIRRATVEREMELRHKNEMLRVEAEARARAKADRENADIIREQIRLKAAEHRQTILESIRTAGTLFGEGFRAFVTDWDKVTATVAGLTLLAVGVYSAKNATSVAGRYIEARLGKPSLVRETSRISVLEALRHPIQVSRRLVSRPQDALEGVILSPSLEARVRDIAIATRNTKKNKSLYRNVLMYGPPGTGKTLFAKKLALHSGMDYAIMTGGDVAPMGREGVTAMHKVFDWASTSRRGLLLFVDEADAFLRKRATEKISEDLRATLNAFLHRTGQHSNKFMLVLASNQPEQFDWAINDRIDEMVCFALPQREERERLVRMYFDKYVLKPATEGKQRLKVAQFDYGKKCSEVAQLTAGMSGREIAQLAVAWQAMAYSSEDGVLTEAMMDARVQDAVQQHQQKMQWLKVERPDSEASKPPHPSLLSC | binding (ATAD3A-Flag [7]): binds

Row | Molecule | binding (ATAD3A-K134Q [1]) | binding (ATAD3A-Flag [2]) | binding [3] | also measured
7 | glucose-regulated protein 75 (GRP75), endogenous (from UniProt P48721 47-679) | binds | binds | binds | binding [4]: binds
